The target of data set [1] is T1, RAP1p (constitutive EMSA complex B3) (Saccharomyces cerevisiae) (UniProt P11938).
T1 sequence (looked up, limits assumed): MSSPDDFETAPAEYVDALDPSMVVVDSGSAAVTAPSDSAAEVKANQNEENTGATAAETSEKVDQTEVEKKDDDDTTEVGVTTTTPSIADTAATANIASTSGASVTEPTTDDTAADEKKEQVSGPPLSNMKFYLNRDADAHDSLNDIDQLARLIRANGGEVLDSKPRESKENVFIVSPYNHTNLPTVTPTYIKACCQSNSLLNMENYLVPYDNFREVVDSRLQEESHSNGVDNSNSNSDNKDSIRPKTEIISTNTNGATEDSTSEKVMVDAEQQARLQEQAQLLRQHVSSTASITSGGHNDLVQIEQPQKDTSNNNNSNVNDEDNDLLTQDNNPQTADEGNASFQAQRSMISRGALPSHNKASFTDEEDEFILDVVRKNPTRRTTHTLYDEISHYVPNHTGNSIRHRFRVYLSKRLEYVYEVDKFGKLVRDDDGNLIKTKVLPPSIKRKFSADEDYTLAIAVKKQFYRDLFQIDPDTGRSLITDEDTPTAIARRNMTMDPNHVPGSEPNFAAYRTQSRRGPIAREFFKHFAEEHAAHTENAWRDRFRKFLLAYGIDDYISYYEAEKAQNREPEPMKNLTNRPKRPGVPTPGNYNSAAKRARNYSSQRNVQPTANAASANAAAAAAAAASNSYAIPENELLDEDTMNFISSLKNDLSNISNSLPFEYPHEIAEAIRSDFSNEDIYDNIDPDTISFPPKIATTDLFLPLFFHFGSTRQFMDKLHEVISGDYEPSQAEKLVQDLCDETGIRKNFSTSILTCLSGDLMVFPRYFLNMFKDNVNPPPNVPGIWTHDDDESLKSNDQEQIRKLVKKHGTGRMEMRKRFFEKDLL
The data set is described as follows: EMSA. The conditions noted are these: constitutive complex same as B3 by cold competition; protein in an extract; label: 32P; variant of OLE1 LORE (oligo 10-5'/10-3'). Background: A gel shift assay detects complexes by their altered migration in electrophoresis.

Data set [2] has as its target T1, RAP1p (constitutive EMSA complex B3) (Saccharomyces cerevisiae). The data set is described as follows: competition with a labelled probe. The following applies: unlabeled OLE1 LORE did not compete B3; protein in an extract; label: 32P.

Results from cells or extracts need not show a direct contact. For some assays here: No signal at the amounts used counts as a negative. Where a protein sequence is shown, tags need not be part of it.

Consider “GAACACCCAACAAACCTTAT (double strand) [LORE T341C]”, for which the binding result in data set [1] is recorded as “binds”. As to “GAACACTCAACAAACCTTAT (double strand) [OLE1 LORE (oligo 10-5'/10-3')]”, in data set [2], the binding result is recorded as “no binding”.

The record behind these values is US6821751B2, “Hypoxia responsive transcription enhancer element from yeast” (The Brigham and Women's Hospital, Inc., priority 2001, dated 2004).
